Results of single-concentration screens

By UniProt entry, the sequences of proteins in these tests, tags left out. Residues count along the entry.
UniProt Q4DA54, 1-478: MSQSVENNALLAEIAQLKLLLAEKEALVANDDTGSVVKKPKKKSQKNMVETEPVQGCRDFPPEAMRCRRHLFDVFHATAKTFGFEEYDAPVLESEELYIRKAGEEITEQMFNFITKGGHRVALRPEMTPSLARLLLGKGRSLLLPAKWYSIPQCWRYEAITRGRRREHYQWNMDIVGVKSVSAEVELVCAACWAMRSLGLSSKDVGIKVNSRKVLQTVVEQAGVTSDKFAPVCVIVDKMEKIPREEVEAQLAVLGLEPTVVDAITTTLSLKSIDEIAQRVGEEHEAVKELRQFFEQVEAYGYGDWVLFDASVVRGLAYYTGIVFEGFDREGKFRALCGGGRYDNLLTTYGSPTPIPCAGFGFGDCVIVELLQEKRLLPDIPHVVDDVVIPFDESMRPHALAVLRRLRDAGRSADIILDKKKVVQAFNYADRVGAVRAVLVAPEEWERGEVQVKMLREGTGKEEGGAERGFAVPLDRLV
UniProt P9WPC5, whole entry: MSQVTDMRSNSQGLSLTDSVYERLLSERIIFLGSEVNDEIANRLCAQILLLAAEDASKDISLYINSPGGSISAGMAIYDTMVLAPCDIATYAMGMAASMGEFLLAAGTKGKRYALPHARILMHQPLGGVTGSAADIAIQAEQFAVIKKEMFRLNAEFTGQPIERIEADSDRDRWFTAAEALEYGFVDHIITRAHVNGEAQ
UniProt P9WPC3, whole entry partner: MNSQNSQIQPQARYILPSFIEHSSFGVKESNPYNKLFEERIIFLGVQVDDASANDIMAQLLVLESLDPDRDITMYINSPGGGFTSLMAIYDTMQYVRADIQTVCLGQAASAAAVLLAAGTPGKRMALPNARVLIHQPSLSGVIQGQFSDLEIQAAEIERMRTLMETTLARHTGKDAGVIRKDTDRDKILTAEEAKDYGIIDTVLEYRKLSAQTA

TcHisRS: 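Histidine-tRNA ligase, Trypanosoma cruzi CL Brener (UniProt Q4DA54). Enzyme assay of histidyl-tRNA synthetase; the read-out is not stated. Compounds at 30 µM. Direction is inferred from retests: higher values go with stronger inhibition. Size under these conditions: about 69,000 compounds, about 31 of them at 50% or above in at least one test.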
ClpP1P2: 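Protease assay of ClpP1P2, read by the AMC dye that it sets free. Target: ClpP1P2, Mycobacterium tuberculosis (UniProt P9WPC5 and UniProt P9WPC3). Concentration: 50 µM. Direction is inferred from only a few compounds that gave an IC50; most scored high, so higher reads as stronger inhibition. Most other retested compounds had strongly negative values. About 69,000 compounds were tested under these conditions; 0.015% (about 10) showed 50% or more at least once.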

Each number is a percent effect as filed.
The record does not define 0% and 100%; most values in the screen are far below 50% and negative numbers occur (in some assays of this library far below -100).
The compounds are a random part of those screened.

structure	TcHisRS	ClpP1P2
Cc1nc(N2CCOCC2)nc2c1COCC21CCN(CC(C)C)C1 (centres undefined)	9.783	-1.375
COc1ccc(NC(=O)c2cccc(CN3CCCC3C)c2)cc1OC (centres undefined)	7.303	-5.046
Cc1nc(CN2C(=O)COC3(CCN(CC4CC4)CC3)C2C)cs1 (centres undefined)	10.05	5.026
Cc1ccc(F)cc1NC(=O)C1CCCN1C(=O)C(C)C (centres undefined)	2.116	-1.496
COc1ccc(CNc2cccnc2-n2cccn2)c(OC)c1OC	-2.051	-2.788
CC(C)N(C)S(=O)(=O)c1ccc2c(c1)CCN(C(=O)c1cnccn1)C2	6.468	0.9845
CCNC(=O)NC1CN(Cc2ccncc2Cl)C[C@@H]1OC (some centres undefined)	0.4878	-15.59
CS(=O)(=O)c1ccc(CC(=O)N2CCN3CCNC(=O)C3C2)cc1 (centres undefined)	11.9	-3.731
CCOC(=O)c1cnn(-c2cc(Oc3ccccc3C)ncn2)c1N	-5.263	6.936
O=S(=O)(C1CC1)N1CCC2(CCN(Cc3nccs3)CC2)CC1	2.299	-3.601
CCOCCn1nc(C)cc1C(=O)N1CC[C@](O)(CC)[C@H](O)C1	2.513	-5.119
N#Cc1cn(C2CC2)c(=O)n(Cc2ncc(-c3cccs3)o2)c1=O	1.587	3.127
CS(=O)(=O)NC1CCN(CCc2ccccc2)CC1	4.545	1.777
COc1cc(I)c(Cl)cc1C(=O)N(C)C	4.878	-0.3859
CC(=O)N[C@@H]1CN(c2nc(C(N)=O)cs2)C[C@H]1c1ccc(C)o1	8.671	2.483
COc1ccc(-c2cccc(-c3ccn(CC4COCCO4)n3)c2)nn1 (centres undefined)	6.494	-3.804
COCc1cncc2c1CCN(C(=O)c1ccc(C)o1)C2	8.108	1.52
O=C(NCCNS(=O)(=O)c1cc(F)cc(F)c1)c1ccoc1	9.184	3.764
COc1cc(C)c(C(C)NC(=O)c2cccnc2N(C)C)cc1OC (centres undefined)	1.053	-4.89
CCc1nc(CC(=O)NC(C#N)CC(C)C)cs1 (centres undefined)	0.9804	-5.233
O=C(CC1CCC2(CC1)CCN(Cc1nccs1)CC2)N1CC=CC1	3.738	-12.21
CS(=O)(=O)N[C@@H]1CN(Cc2ccccc2)C[C@@H]2CCCO[C@@H]21	4.902	-5.369
CCn1ccnc1CN1CCN(C(C)C(=O)N2CCCC2)CC1 (centres undefined)	1.734	-30.57
O=C(c1ccn(-c2cccc(F)c2)n1)N1CCN(CCO)CC1	3.175	8.089
COCc1cc(N(C)Cc2c(C)nn(C)c2C)n2nccc2n1	6.061	-10.67
Oc1cc(C2CCCCN2C2CCCC2)nc(-c2cccnc2)n1 (centres undefined)	6.977	-15.41
Cc1ccc2c(c1)C(NC1CCN(C)CC1)CCCO2 (centres undefined)	3.665	-0.5558
O=C(NCCc1ccsc1)Nc1cccnc1N1CCCC1	-1.515	3.599
COC(=O)C(NC(=O)CC(C)C)c1cc(F)ccc1F (centres undefined)	6.857	-16.48
CCOCCCn1c(NC(=O)c2ccc(C)nc2)nc2ccccc21	-1.527	0.1136
CSCCc1c(-c2ccccc2)ncn1CC(C)(C)N1CCCC1	0.578	-11.76
O=C(c1nccc2ccccc12)N(Cc1ccco1)CC1CCCO1 (centres undefined)	3.665	-8.465
CCC(CC)(CCO)CNC(=O)c1ccon1	-1.657	2.394
CCNc1ccnc(NC2CCN(C(=O)c3ccc(C)cc3)CC2)n1	10.97	5.358
CN(C)CCNCCC(Cc1ccccc1)C1CCOC(C)(C)C1 (centres undefined)	10.42	-13.44
O=C1N(c2ccc(Br)cc2)Cc2n[nH]c(=O)n21	-9.877	-5.845
CCC(C(=O)N(C)Cc1cc(COC)[nH]n1)n1cccn1 (centres undefined)	4.972	-4.225
CN(CC(N)=O)C(=O)CCCn1ccc2cc(Cl)ccc21	3.03	-5.425
O=C(CC1CC1)N1C[C@@H](O)[C@H](N2CCN(c3ccccc3)CC2)C1	5.085	-8.292
CCc1noc(C(C)N2CCN(Cc3noc(C4CC4)n3)CC2)n1 (centres undefined)	5.455	-2.958
CCS(=O)(=O)Nc1cnn(Cc2cccc(C)c2)c1	8.911	-4.516
CCOc1ccc(C#N)cc1NC(=O)N1CCOC(C(N)=O)C1 (centres undefined)	1.053	-7.161
CNC(=O)[C@H]1C[C@@H]2CN(C(=O)NC(C)C)C[C@H]1O2	1.031	-3.964
COC[C@H]1CC[C@@H]2[C@@H](CCN2Cc2ccco2)O1	11.06	18.74
c1cn(Cc2nnc(C3CCN(C4CCOCC4)CC3)n2C2CC2)cn1	7.884	-8.746
c1ccc(NCc2cn3c(n2)CNCC3)nc1	8.458	-9.531

4 of the entries, repeated:

CCNc1ccnc(NC2CCN(C(=O)c3ccc(C)cc3)CC2)n1 gave TcHisRS: 10.97%; ClpP1P2: 5.358%.
CCNC(=O)NC1CN(Cc2ccncc2Cl)C[C@@H]1OC (some centres undefined) gave TcHisRS: 0.4878%; ClpP1P2: -15.59%.
Cc1nc(CN2C(=O)COC3(CCN(CC4CC4)CC3)C2C)cs1 (centres undefined) gave TcHisRS: 10.05%; ClpP1P2: 5.026%.
O=C(c1ccn(-c2cccc(F)c2)n1)N1CCN(CCO)CC1 gave TcHisRS: 3.175%; ClpP1P2: 8.089%.

From ChEMBL document CHEMBL3988442, “University of Dundee, Small-Polar-MMV Screening Library” (2021).